Laboratory results: patent publication EP4119947A1
No constants are given. Whether binding was seen depends on the method and setting. Some entries that bind do so weakly or less than the wild type.

By UniProt entry, the sequences of proteins in these tests, tags left out. Where a name states a change or a piece, a line headed by the entry shows the natural chain unless it says otherwise.
UniProt P51654: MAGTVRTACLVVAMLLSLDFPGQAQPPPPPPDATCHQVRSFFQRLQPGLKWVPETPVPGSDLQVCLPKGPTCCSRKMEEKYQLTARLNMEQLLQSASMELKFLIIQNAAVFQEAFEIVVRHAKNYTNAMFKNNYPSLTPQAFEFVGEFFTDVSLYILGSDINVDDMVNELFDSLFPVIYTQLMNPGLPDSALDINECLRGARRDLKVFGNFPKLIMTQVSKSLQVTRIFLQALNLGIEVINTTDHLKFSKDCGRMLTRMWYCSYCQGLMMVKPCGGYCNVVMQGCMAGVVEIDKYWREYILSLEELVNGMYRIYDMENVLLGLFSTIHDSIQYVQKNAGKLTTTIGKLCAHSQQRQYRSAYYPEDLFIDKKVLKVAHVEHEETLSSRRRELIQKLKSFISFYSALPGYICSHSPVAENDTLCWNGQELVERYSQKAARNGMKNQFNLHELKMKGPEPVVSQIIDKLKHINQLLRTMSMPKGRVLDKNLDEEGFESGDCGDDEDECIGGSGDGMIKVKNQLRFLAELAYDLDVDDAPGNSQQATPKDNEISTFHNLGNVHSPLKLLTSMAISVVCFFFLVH

B1: GT30 antibody (antibody, V domains shown)
VH: QVQLQQSGAELARPGASVKLSCRASGYTFTSYGISWMMQRTGQGLEWIGEIYPRSGITYYNEKFKGKATLTADKSSSTAYMQLSSLTSEDSAVYFCARDVSDGYLFPYWGQGTLVTVSA
VL: DIQMTQSPASLSASVGETVTITCRTSENIYSYLAWYQQKQGKSPQLLVYNAKTLPEGVPSRFSGSGSGTQFSLKINSLQPEDFGSYYCQHHYGTPPTFGGGTKLEIKR
B2: GT607 antibody (antibody, V domains shown)
VH: EVQLVESGGDVVRPGGSLKLSCAASGFTFSSYGMSWVRQLPDKRLEWVASVGNGGSYRYYPENLKGRFTISRDNTKNTLYLQISGLKSEDTAIYYCARRGAFPYFDVWGAGTTVTVSS
VL: B1 VL
B3: GT114 antibody (antibody, V domains shown)
VH: DVQLQESGPGLVKPSQSLSLTCTVTGYSITSDSAWNWIRQFPGNKLEWMAYIMYSGITSYNPSLKSRISITRDTAKNQFFLQLNSVTTEDSATYYCSRGYWYFDVWGAGTTVTVSS
VL: QIVLTQSPAIMSASLGEEITLTCSASSSVSYMHWYQQKSGTSPKLLIYSTSILASGVPSRFSGSGSGTFYSLTISSVEAEDAADYYCLQWITYRTFGGGTKLEIKR
B4: GT165 antibody (antibody, V domains shown)
VH: QVQLQQSGAELVGPGASVKISCKAFGYTFTNHHINWVKQRPGQGLDWIGYINPYNDYTNYNQKFKGKATLTVDKSSSTAYMELSSLTSEDSAVYYCARSDPAWFAYWGQGTLVTVSA
VL: DIQMTQSPSSLSASLGGKVTITCKASQDINKNIAWYQHKPGKGPRLLIWYTYTLQPGIPSRFSGSGSGRDYSFSISNLEPEDIATYYCLQYDNLPFTFGTGTKLEIKR

What was measured:
free GPC3 (human) [1] = biological target: free GPC3 (human) (UniProt P51654); test: antibody selection; used as capture antibody in sandwich immunoassay of serum free GPC3
free GPC3 (human) [2] = biological target: free GPC3 (human) (UniProt P51654); test: antibody selection; used as labeled detection antibody in sandwich immunoassay of serum free GPC3

| Binder | binding (free GPC3 (human) [1]) | binding (free GPC3 (human) [2]) |
| --- | --- | --- |
| B1 | binds | – |
| B2 | – | binds |
| B3 | binds | – |
| B4 | – | binds |
